This is one part of the list.

The chains behind the UniProt entries cited, without tags or fusion partners.
UniProt Q0JBA9, entry or part of it: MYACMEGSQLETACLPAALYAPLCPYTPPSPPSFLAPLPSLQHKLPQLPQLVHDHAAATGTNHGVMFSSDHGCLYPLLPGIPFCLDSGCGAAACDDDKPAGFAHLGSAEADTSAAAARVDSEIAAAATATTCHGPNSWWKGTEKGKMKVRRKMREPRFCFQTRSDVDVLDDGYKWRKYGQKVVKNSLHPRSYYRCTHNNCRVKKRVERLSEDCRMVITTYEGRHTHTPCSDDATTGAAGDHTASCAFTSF

For this test, the target named is OsWRKY34 (Oryza sativa, UniProt Q0JBA9 1-250). Description: protein-binding microarray (RPBM); PBS, 2% BSA, 51.3 ng/ul salmon testes DNA, 50 uM zinc acetate, 200 nM TF, 25 C, 1 h; high values mean tight binding. As to conditions: protein: recombinant; tags: N-terminal polyhistidine and DsRed monomer fusion (pET32a); label: CyDye5-dUTP incorporated in the synthesized complementary strand; 3' TTTTT single-stranded linker to array surface; dsDNA, one strand shown. Summed up: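 A custom Agilent array was converted to double-stranded form by primer extension with Cy5-dUTP and blocked with 2% BSA. Protein at 200 nM in PBS with 2% BSA, salmon testes DNA and 50 µM zinc acetate was applied for 1 h at 25 °C, followed by washing. The proteins were polyhistidine–DsRed N-terminal fusions of transcription factors, expressed in E. coli BL21-CodonPlus and Ni–NTA-purified. The binding signal is per-feature fluorescence intensity (arbitrary units) from an Axon 4000B scanner.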
Take “AGTAGATGGTGAACTTTGTATTAGATGGTTCCAGTTATCACGGAGTCACCTAGTGCAG”: the binding signal is 8640 fluorescence intensity (a.u.).
To “CAGCCTTAGGGGTTGCCCTTCGCGGTTCGGGCTGACGTCACGGAGTCACCTAGTGCAG” belongs 8090 fluorescence intensity (a.u.); to “CTCCGCCGCCCCTATCACGCCTGCCGCTGCTGCTCCGCCGCGGAGTCACCTAGTGCAG”, 8540 fluorescence intensity (a.u.); to “AAACCAGCTCGACGGACACCACTACCTCCGCCAGCTCAATCGGAGTCACCTAGTGCAG”, 8600 fluorescence intensity (a.u.).
To “CCCAAACAGCCACAGTTTGATACCGCTTCTTGTAGCATTTCGGAGTCACCTAGTGCAG” belongs 8680 fluorescence intensity (a.u.); to “ACCAACATCTAACTGTAACTCAACGTCCGGATACGTTTCTCGGAGTCACCTAGTGCAG”, 8360 fluorescence intensity (a.u.).
Take “TAGATGTCTCTCTCTTTTTTTTTGTGAGTTCGCTTACAAACGGAGTCACCTAGTGCAG”: the binding signal is 8500 fluorescence intensity (a.u.).
Regarding “GCCTGGACAAGTCTAACTACAACGGTAAAACCATTATCCACGGAGTCACCTAGTGCAG”, the binding signal was 8150 fluorescence intensity (a.u.).
With “GTGCCATTCGCTGAGCTACAACATCATAGCGCCACTTACTCGGAGTCACCTAGTGCAG” the figure was 10000 fluorescence intensity (a.u.); with “TCCAGGACCTCCACCCATCCAGATCCACAGCAACCACCACCGGAGTCACCTAGTGCAG”, 9230 fluorescence intensity (a.u.).
Regarding “CTCCTGTCAATTTCTATATATGCCTCTGCATGCTTTACCGCGGAGTCACCTAGTGCAG”, the binding signal was 12100 fluorescence intensity (a.u.).
Take “GTTGATAAAACAAAATTTTGCTTTGTTGTTTTGGATAAGACGGAGTCACCTAGTGCAG”: the binding signal is 14000 fluorescence intensity (a.u.).
With “TATCCGTTTTATATTATAAAACTTTCTAGCATTGCCCACACGGAGTCACCTAGTGCAG” the figure was 8540 fluorescence intensity (a.u.); with “CTATGGCTTCCTAGGATTATACTATTGTCATATTTTTTTTCGGAGTCACCTAGTGCAG”, 10900 fluorescence intensity (a.u.); with “CTCTACAATGGTTCTCCTACTACGTTTTTCGTTTCAAACTCGGAGTCACCTAGTGCAG”, 8950 fluorescence intensity (a.u.).
As to “GAGTTTATACTCTTTCTTTCACCATGTTGACTTTTTGCACCGGAGTCACCTAGTGCAG”, the binding signal is 14100 fluorescence intensity (a.u.).
For “TTAGGAATGGAACAGACTGCAGAGTTTCTTGTTCAATATTCGGAGTCACCTAGTGCAG”, the binding signal is 10200 fluorescence intensity (a.u.).
With “GTCACCTTTGCACAACATGAGCCAATCCCGCGCCCTCTCACGGAGTCACCTAGTGCAG” the figure was 8150 fluorescence intensity (a.u.).
Regarding “CTTCCTACTGACCCAACTAACTTTATTATTTCTTCCTTCTCGGAGTCACCTAGTGCAG”, the binding signal is 8270 fluorescence intensity (a.u.).
For the sequence “TTATCTAGGCCTGCCATCTATCGGTATGATCTAAAGCTCTCGGAGTCACCTAGTGCAG”, the binding signal was 8170 fluorescence intensity (a.u.).
Take “TTCCAGGCAGCCACTAATCCCAAACGCCTTTTTTTTTTCTCGGAGTCACCTAGTGCAG”: the binding signal is 11100 fluorescence intensity (a.u.).
With “CCACCTGGACCATGCATCCTCTCTCTATCTCTATATAAGCCGGAGTCACCTAGTGCAG” the figure was 11600 fluorescence intensity (a.u.).
To “CAATTTTGAGAGCAGTTTTTGCTAACATGGCTCGTTGACCCGGAGTCACCTAGTGCAG” belongs 8460 fluorescence intensity (a.u.); to “CTACATTGGCACTCGTTTTCAGGATGGCGATGGCATCAATCGGAGTCACCTAGTGCAG”, 10200 fluorescence intensity (a.u.); to “GATGACACTAATCTCCATCCTAACACGCGTCGCTCTCACTCGGAGTCACCTAGTGCAG”, 9460 fluorescence intensity (a.u.).
Regarding “TTTAGTTTATCACCTATCTACTATCATACGGCATTTTTAGCGGAGTCACCTAGTGCAG”, the binding signal is 8540 fluorescence intensity (a.u.).
Regarding “TGTCACATCTATTCCAAGGATGTTTTTCTGCCCTACTTCTCGGAGTCACCTAGTGCAG”, the binding signal is 9060 fluorescence intensity (a.u.).
With “AATTTCCACTCTTTCAGTGCTTTAACCAATTTTGTCAAATCGGAGTCACCTAGTGCAG”, the binding signal was 11900 fluorescence intensity (a.u.).
To “AATTCTCTCATTTTCCACATTCACATTTCTTAAACGGTTACGGAGTCACCTAGTGCAG” belongs 10100 fluorescence intensity (a.u.).
For the sequence “CTCTCGCTCTTTTATTTTTTTTCCTTGTTTCCTTTCGTGTCGGAGTCACCTAGTGCAG”, the binding signal was 12100 fluorescence intensity (a.u.).
With “AGACTGATATGATAGTATTATTTTACCAAGCTAGTCCGGCCGGAGTCACCTAGTGCAG” the figure was 8410 fluorescence intensity (a.u.).
On to “CACATACTCCATCTGGTTCTATATTAATTGATGTTTTGGACGGAGTCACCTAGTGCAG”, for which the binding signal is 9810 fluorescence intensity (a.u.).
As to “TATTGCATGTCCATATTCACTGTCCTAAATGGTGTTACTCCGGAGTCACCTAGTGCAG”, the binding signal is 8500 fluorescence intensity (a.u.).
To “TATTTTTTGCTATTATCTTTCGTGTAAGCTATTTCTCTATCGGAGTCACCTAGTGCAG” belongs 9170 fluorescence intensity (a.u.).
Consider “TACACGAGTCACGTCTCGCTCGGCTCACGCACGCACGAATCGGAGTCACCTAGTGCAG”, for which the binding signal is 9660 fluorescence intensity (a.u.).
As to “AATACTTTCTTCCTTTTGCTCCTATACTGATATACTACTACGGAGTCACCTAGTGCAG”, the binding signal was 10900 fluorescence intensity (a.u.).
With “CTCCGGCTCCGATTCACCGACCGCATCAGCTACGTCTACCCGGAGTCACCTAGTGCAG” the figure was 8860 fluorescence intensity (a.u.).
Take “TTCTGGTTGGGGAAGGGTTAAAAGTCCACATATCTCACTACGGAGTCACCTAGTGCAG”: the binding signal was 12000 fluorescence intensity (a.u.).
As to “ACCCACACACCCACACCCACACGTCAAAGACCCACGGTTTCGGAGTCACCTAGTGCAG”, the binding signal is 8480 fluorescence intensity (a.u.).
Take “ACTCCTCCCATCCCTTGTACTACTGCCATTTTTTCAGTTTCGGAGTCACCTAGTGCAG”: the binding signal was 8750 fluorescence intensity (a.u.).
Consider “TCTATCGATTTCTCCCTTCCTTCTCTTTCTTCTTTCTTTCCGGAGTCACCTAGTGCAG”, for which the binding signal was 8500 fluorescence intensity (a.u.).
With “ACTCACAACCAAAACCATTGCCATTATTCTCACCATGCAACGGAGTCACCTAGTGCAG” the figure was 8660 fluorescence intensity (a.u.); with “GGAGGCACAGATGGCGTATACACATAAAGTATACCATACCCGGAGTCACCTAGTGCAG”, 8192 fluorescence intensity (a.u.); with “TTTTCTTCCTTCTTTCTCCTGCTTCACGGGCCCGACCTATCGGAGTCACCTAGTGCAG”, 10100 fluorescence intensity (a.u.).
With “TGGCTAGGAGCCGGTTGGCATTGGGGTTAACCTGGTCTGACGGAGTCACCTAGTGCAG” the figure was 8210 fluorescence intensity (a.u.); with “GGCTAGAACTACTCCATCGGCTTGTCAGCCGATCGGCTGTCGGAGTCACCTAGTGCAG”, 9120 fluorescence intensity (a.u.); with “CTCGAACCCAAACCGACTATCGTTCCTTCCGGCTGACTTACGGAGTCACCTAGTGCAG”, 9160 fluorescence intensity (a.u.).
On to “CGGGGCTTGGGGTTTTGCGGGTTTGAGGAAGAAGAAGAGGCGGAGTCACCTAGTGCAG”, for which the binding signal is 12400 fluorescence intensity (a.u.).
With “TTGACTTTTGCTTGCACTGTTTGATTACTCGTCTTATTAACGGAGTCACCTAGTGCAG” the figure was 8670 fluorescence intensity (a.u.).
With “TCTTTCTCACTCTAATCGCTAGTCTTCGCGGTCCATATCTCGGAGTCACCTAGTGCAG” the figure was 10200 fluorescence intensity (a.u.); with “TTCCGGTGGTGGCAAGGGCGGGCGGTGGCAGCGGAGGAGTCGGAGTCACCTAGTGCAG”, 11400 fluorescence intensity (a.u.); with “CTTCCTCCGTTTCACAATGTAAGTCGTTCTAGCATTTTTCCGGAGTCACCTAGTGCAG”, 8110 fluorescence intensity (a.u.).
As for “AGACTTGAATTTCCTATAGCAATCGATTATTTCTTCTCACCGGAGTCACCTAGTGCAG”, the binding signal was 8140 fluorescence intensity (a.u.).
For the sequence “TATGGGTGGTTTCGCTAACGTGGCAGGGGAGGGCGGCGACCGGAGTCACCTAGTGCAG”, the binding signal was 13200 fluorescence intensity (a.u.).

The record behind these values is article PMC7819943, “Rice protein-binding microarrays: a tool to detect cis-acting elements near promoter regions in rice”.
